The other results are listed elsewhere or left out.
What was measured:
Assay in all cases: log2 fold change, soluble protein after heating vs DMSO (PISA); higher = thermal stabilisation; K562 lysate, 10 uM; active = over 0.2 and 3.5 SD of the protein, either way, in both replicates (recomputed)
ibrutinib = compound: C=CC(=O)N1CCC[C@@H](n2nc(-c3ccc(Oc4ccccc4)cc3)c3c(N)ncnc32)C1 [ibrutinib]
In short: (§1)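 Pellets of K562 cells were dounce-homogenised in PBS pH 7.4 with 1 mM MgCl2, and the crude extract was held at 1 mg/mL protein for a 30 min treatment with 10 μM compound. Aliquots were heated for 3 min over 48°C-58°C and pooled before NP-40 was added to 0.5% at 4°C. The supernatant from 21,000xg for 90 min was quantified by TMTpro 16plex LC-MS/MS with channel sums equalised. Values are reported from duplicates as log-two fold change in thermal stability relative to solvent controls.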

Amino acid sequences for entries named in this document (tags omitted). A change or cut given only in a name is not applied to a line headed by its entry.
UniProt Q9UQR1: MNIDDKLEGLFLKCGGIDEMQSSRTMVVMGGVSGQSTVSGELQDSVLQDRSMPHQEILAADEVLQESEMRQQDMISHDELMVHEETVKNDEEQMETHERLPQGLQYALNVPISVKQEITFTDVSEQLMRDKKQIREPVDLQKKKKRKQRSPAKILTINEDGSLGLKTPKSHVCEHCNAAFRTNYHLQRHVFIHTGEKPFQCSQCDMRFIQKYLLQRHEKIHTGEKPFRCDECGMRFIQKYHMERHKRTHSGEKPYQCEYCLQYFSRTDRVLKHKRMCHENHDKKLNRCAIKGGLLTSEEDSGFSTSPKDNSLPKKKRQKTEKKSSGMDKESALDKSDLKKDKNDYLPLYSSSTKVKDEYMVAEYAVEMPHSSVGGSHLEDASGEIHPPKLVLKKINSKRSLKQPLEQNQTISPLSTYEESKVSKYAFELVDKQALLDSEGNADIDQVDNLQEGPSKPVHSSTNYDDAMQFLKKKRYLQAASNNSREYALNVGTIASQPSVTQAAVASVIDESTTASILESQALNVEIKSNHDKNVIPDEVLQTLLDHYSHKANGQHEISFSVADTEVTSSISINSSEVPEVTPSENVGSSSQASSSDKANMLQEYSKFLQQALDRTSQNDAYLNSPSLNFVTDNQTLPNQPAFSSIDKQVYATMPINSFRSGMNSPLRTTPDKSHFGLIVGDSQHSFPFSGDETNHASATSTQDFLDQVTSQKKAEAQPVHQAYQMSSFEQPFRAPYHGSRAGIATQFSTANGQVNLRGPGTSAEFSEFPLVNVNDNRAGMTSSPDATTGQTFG
UniProt Q9Y5V0: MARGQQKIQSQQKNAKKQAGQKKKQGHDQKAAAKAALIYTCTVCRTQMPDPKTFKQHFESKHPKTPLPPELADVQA
UniProt Q9BRR0: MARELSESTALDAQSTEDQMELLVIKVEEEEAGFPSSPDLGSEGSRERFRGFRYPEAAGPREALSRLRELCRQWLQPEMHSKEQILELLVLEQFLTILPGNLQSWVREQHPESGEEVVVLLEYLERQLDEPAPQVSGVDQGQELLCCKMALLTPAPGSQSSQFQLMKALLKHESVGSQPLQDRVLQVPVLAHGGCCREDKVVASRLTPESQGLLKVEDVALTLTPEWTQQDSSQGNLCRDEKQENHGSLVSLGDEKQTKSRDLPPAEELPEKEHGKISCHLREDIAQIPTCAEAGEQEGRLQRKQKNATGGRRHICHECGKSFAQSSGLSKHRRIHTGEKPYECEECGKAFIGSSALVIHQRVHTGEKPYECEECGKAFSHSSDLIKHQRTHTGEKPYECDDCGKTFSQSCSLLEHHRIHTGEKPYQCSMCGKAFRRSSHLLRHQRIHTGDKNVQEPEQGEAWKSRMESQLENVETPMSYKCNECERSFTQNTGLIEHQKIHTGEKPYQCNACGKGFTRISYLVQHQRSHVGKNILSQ
UniProt Q9ULU4: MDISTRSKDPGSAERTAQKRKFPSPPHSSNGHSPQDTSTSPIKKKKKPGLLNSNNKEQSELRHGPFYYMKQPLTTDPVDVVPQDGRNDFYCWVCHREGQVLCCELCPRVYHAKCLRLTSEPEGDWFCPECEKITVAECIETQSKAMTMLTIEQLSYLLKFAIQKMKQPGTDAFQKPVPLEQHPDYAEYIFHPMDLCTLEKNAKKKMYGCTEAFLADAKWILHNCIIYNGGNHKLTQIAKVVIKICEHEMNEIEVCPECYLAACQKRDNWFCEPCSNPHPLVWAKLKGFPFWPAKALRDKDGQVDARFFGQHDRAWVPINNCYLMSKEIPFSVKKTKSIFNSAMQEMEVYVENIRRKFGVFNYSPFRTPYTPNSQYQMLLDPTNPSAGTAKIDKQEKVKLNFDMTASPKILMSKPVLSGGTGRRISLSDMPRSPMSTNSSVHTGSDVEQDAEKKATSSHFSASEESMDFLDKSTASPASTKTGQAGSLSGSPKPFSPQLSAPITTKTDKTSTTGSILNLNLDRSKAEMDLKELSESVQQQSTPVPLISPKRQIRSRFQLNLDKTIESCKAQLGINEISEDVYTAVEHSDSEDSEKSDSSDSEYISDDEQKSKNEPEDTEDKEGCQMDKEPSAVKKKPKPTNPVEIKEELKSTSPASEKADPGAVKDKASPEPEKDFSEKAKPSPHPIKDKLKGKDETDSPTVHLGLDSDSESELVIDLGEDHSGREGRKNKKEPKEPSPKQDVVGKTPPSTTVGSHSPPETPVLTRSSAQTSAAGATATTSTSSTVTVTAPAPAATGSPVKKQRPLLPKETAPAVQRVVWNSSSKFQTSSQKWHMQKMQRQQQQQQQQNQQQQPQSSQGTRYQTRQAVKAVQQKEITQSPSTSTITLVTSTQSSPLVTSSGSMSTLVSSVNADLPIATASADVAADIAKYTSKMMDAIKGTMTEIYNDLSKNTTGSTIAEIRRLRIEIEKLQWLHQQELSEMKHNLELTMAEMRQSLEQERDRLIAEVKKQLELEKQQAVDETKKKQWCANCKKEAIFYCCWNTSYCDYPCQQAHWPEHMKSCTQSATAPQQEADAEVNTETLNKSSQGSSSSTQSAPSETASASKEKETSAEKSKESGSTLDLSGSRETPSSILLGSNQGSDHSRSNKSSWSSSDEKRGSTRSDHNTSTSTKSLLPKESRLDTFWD
UniProt Q92610: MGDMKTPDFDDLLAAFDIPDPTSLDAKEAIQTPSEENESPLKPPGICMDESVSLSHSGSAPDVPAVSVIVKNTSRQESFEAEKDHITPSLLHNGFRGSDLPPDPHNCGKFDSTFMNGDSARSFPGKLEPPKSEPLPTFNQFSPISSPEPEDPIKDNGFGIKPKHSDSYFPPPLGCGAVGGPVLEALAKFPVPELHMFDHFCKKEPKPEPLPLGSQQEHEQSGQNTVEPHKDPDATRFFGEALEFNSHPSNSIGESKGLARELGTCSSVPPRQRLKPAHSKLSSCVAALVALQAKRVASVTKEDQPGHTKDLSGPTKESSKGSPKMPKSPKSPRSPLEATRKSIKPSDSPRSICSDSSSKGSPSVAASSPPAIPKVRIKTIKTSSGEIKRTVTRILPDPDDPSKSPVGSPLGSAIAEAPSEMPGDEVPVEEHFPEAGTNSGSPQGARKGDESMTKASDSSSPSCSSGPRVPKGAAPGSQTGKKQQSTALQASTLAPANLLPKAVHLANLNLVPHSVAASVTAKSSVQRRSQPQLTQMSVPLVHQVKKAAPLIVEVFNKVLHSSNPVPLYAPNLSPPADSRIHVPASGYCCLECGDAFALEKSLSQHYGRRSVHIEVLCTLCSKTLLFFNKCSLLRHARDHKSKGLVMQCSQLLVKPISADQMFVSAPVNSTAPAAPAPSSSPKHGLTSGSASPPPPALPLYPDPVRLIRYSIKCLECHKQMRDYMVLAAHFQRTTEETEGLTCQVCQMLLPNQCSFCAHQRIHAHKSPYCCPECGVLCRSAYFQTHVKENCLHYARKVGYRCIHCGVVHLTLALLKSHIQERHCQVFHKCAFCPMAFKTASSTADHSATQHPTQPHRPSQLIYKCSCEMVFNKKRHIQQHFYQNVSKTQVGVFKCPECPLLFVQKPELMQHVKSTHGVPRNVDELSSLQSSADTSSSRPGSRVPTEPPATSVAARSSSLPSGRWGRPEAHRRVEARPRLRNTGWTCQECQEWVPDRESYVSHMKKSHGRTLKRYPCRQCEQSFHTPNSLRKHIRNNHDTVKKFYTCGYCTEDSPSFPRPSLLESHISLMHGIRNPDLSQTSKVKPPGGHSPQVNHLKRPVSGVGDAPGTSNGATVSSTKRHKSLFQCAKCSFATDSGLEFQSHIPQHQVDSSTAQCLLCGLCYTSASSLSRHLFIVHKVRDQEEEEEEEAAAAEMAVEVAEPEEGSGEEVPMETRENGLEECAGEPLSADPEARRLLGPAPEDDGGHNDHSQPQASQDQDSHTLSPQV
UniProt O00488: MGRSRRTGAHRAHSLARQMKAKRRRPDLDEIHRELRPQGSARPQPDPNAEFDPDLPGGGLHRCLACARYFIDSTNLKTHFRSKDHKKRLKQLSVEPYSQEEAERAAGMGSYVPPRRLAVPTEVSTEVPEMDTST
UniProt A6NFI3: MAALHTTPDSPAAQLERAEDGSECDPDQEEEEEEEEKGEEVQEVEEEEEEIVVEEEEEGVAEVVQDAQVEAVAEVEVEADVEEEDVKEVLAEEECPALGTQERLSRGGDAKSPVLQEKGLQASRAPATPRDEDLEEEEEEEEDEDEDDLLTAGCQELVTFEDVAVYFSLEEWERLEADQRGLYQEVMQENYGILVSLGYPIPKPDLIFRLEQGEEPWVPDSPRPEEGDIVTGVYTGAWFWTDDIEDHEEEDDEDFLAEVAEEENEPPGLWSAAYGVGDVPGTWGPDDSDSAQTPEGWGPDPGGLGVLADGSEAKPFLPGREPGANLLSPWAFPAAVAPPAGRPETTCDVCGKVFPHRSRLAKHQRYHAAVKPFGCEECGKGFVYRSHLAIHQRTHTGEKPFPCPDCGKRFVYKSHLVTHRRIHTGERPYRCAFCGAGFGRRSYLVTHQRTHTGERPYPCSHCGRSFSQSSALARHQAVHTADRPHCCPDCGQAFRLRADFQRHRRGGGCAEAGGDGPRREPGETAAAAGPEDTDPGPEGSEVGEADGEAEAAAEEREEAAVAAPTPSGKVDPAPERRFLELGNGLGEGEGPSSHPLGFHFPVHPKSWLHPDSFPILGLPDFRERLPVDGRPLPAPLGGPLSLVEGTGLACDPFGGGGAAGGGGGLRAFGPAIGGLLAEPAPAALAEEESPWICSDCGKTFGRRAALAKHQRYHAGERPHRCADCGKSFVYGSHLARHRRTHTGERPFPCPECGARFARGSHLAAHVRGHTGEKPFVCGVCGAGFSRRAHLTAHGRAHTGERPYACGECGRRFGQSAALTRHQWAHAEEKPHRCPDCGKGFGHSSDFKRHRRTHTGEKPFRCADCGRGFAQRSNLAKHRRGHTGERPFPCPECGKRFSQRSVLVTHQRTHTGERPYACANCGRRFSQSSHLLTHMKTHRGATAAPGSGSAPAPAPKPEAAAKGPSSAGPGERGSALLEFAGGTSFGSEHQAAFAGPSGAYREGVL
UniProt Q16587: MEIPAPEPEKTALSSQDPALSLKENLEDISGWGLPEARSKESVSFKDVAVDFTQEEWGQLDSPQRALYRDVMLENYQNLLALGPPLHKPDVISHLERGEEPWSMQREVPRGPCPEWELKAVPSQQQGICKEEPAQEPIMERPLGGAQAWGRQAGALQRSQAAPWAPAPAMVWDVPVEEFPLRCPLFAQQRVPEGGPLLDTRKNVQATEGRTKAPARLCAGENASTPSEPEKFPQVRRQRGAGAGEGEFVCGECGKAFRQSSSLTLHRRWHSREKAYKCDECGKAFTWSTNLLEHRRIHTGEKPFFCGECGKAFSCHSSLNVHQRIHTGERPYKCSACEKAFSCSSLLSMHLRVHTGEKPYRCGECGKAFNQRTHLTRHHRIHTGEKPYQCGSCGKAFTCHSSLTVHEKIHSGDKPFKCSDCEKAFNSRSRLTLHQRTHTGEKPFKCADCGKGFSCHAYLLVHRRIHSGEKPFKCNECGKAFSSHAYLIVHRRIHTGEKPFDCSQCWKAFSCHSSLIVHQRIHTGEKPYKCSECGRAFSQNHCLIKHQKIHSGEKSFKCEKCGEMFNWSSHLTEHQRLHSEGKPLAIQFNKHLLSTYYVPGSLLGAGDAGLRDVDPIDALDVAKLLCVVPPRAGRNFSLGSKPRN
UniProt Q9H4I2: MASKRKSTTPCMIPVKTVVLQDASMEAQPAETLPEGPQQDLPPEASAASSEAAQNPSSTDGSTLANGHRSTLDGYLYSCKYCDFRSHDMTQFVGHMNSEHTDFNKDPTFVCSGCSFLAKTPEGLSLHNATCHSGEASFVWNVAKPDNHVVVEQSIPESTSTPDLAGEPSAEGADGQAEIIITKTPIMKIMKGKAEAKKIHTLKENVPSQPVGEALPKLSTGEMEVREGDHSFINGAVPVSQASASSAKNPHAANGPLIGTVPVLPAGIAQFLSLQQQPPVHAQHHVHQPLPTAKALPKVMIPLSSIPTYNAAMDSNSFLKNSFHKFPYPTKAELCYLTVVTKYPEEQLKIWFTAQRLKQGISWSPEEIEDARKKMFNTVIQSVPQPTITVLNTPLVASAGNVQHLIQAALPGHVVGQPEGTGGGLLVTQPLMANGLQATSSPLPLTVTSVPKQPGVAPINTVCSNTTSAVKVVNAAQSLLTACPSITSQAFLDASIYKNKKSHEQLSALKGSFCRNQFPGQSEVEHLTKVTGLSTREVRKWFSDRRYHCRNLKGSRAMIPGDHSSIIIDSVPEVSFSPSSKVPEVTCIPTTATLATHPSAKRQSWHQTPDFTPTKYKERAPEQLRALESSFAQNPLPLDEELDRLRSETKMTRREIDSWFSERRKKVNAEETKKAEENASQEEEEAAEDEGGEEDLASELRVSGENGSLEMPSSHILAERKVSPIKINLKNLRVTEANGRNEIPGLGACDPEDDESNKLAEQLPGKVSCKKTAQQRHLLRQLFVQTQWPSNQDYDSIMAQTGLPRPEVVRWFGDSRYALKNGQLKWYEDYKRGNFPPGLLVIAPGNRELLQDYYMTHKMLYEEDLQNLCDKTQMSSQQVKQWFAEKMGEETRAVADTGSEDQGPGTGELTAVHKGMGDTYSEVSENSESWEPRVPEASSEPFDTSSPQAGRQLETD

[1] = compound: CC(=O)c1cnc2ccc(-c3cc(Cl)c(O)c(Cl)c3)nc2c1N[C@H]1CC[C@H](CN(C)C)CC1
In short: as §1

ralimetinib = compound: CC(C)(C)Cn1c(N)nc2ccc(-c3[nH]c(C(C)(C)C)nc3-c3ccc(F)cc3)nc21 [ralimetinib]
In short: as §1

[2] = compound: CC(C)(O)CC(=O)NCCn1ccc2ncnc(Nc3ccc(Oc4cccc(C(F)(F)F)c4)c(Cl)c3)c21
In short: as §1

[3] = compound: CC(C)C1=C2N=C(C=C(N2N=C1)NCC3=CC=CC=C3)NCCCCCCN
In short: as §1

[4] = compound: CC1=C(C(CC(=O)N1)C2=CC=C(C=C2)C(F)(F)F)C(=O)NC3=C(C=C4C(=C3)C=NN4)F
In short: as §1

[5] = compound: CC1=C(C=C(C=C1)NC(=O)C2=CC(=CC=C2)C(C)(C)C#N)NC3=CC4=C(C=C3)N=CN(C4=O)C
In short: as §1

[6] = compound: CC1=C(C=C(C=C1)NC(=O)C2=CC(=CC=C2)N(C)C)NC(=O)C3=CC=C(C=C3)O
In short: as §1

[7] = compound: CC1=CC=C(C=C1)SC2=C3C=C(SC3=CN=C2)C(=O)N
In short: as §1

[8] = compound: CCCS(=O)(=O)Nc1ccc(F)c(C(=O)c2c[nH]c3ncc(Cl)cc23)c1F
In short: as §1

barasertib = compound: CCN(CCCOc1ccc2c(Nc3cc(CC(=O)Nc4cccc(F)c4)[nH]n3)ncnc2c1)CCOP(=O)(O)O [barasertib]
In short: as §1

volasertib = compound: CC[C@@H]1C(=O)N(C)c2cnc(Nc3ccc(C(=O)N[C@H]4CC[C@H](N5CCN(CC6CC6)CC5)CC4)cc3OC)nc2N1C(C)C [volasertib]
In short: as §1

[9] = compound: CCn1c(C(=O)N(C2CC2)C2CC2)cc2c3c(ncn3C)c(Nc3cc(C)n(C)n3)nc21
In short: as §1

[10] = compound: CCn1cc(-c2ccnc3[nH]c(-c4cccc(CN(C)C)c4)cc23)c(-c2ccc(NC(=O)N(C)C)cc2)n1
In short: as §1

[11] = compound: CN1CCC(CNc2ccc3ncc(-c4cccc(OC(F)(F)F)c4)n3n2)CC1
In short: as §1

sotrastaurin = compound: CN1CCN(c2nc(C3=C(c4c[nH]c5ccccc45)C(=O)NC3=O)c3ccccc3n2)CC1 [sotrastaurin]
In short: as §1

[12] = compound: CC1=C(C2=C(C=C1)C(=O)C3=CC=CC=C3N2CCCN)C
In short: as §1

vemurafenib = compound: CCCS(=O)(=O)Nc1ccc(F)c(C(=O)c2c[nH]c3ncc(-c4ccc(Cl)cc4)cc23)c1F [vemurafenib]
In short: as §1

[13] = compound: CC[C@@H]1C(=O)N(C)c2cnc(Nc3ccc(C(=O)NC4CCN(C)CC4)cc3OC)nc2N1C1CCCC1
In short: as §1

saracatinib = compound: CN1CCN(CCOc2cc(OC3CCOCC3)c3c(Nc4c(Cl)ccc5c4OCO5)ncnc3c2)CC1 [saracatinib]
In short: as §1

Measured: log2 fold change

ZNF654, A0A1B0GWA0
inactive: ibrutinib -0.076 | [1] 0.17 | ralimetinib 0.129 | [2] -0.083 | [3] 0.088 | [4] 0.04 | [5] 0.203 | [6] -0.061 | [7] 0.048 | [8] -0.056 | barasertib 0.159 | volasertib -0.061 | [9] -0.071 | [10] -0.119 | [11] -0.034 | sotrastaurin -0.025

ZNF148 (UniProt Q9UQR1)
inactive: ibrutinib 0.127 | ralimetinib 0.074 | [2] -0.111 | [3] -0.079 | [4] 0.037 | [12] 0.094 | [5] 0.148 | [6] 0.035 | vemurafenib -0.014 | barasertib 0.184 | [13] 0.068 | [9] 0.033 | [10] -0.247 | [11] 0.036 | saracatinib 0.036 | sotrastaurin -0.045

ZNF706 (UniProt Q9Y5V0)
inactive: ibrutinib 0.102 | [1] -0.002 | ralimetinib 0.032 | [2] -0.065 | [3] 0.01 | [4] 0.015 | [12] -0.051 | [5] 0.03 | [6] -0.038 | [7] -0.022 | vemurafenib -0.002 | [8] -0.013 | barasertib -0.03 | [13] 0.075 | volasertib 0.034 | [9] 0.031 | [10] -0.026 | [11] 0.061 | saracatinib 0.06 | sotrastaurin -0.037

ZKSCAN3 (UniProt Q9BRR0)
inactive: ibrutinib 0.023 | [1] -0.365 | ralimetinib -0.079 | [2] -0.041 | [3] 0 | [12] 0.028 | [5] 0.08 | [6] 0.039 | [7] -0.225 | vemurafenib 0.108 | [8] 0.308 | barasertib 0.076 | [13] 0.142 | volasertib -0.306 | [9] 0.056 | [10] -0.167 | [11] 0.088 | saracatinib -0.035 | sotrastaurin -0.006

ZMYND8 isoform 19 (UniProt Q9ULU4)
inactive: ibrutinib 0.111 | [1] -0.02 | ralimetinib 0.047 | [2] 0.007 | [3] 0.002 | [4] 0.007 | [12] 0.027 | [5] 0.02 | [6] 0.011 | [7] 0.037 | vemurafenib 0.061 | [8] 0.071 | barasertib 0.012 | [13] 0.016 | volasertib -0.025 | [9] -0.015 | [10] -0.127 | [11] 0.037 | saracatinib -0.01 | sotrastaurin 0.019

ZNF592 (UniProt Q92610)
inactive: ibrutinib 0.097 | [1] 0.143 | ralimetinib 0.006 | [2] -0.048 | [3] -0.009 | [12] -0.047 | [5] 0.098 | [6] -0.024 | [7] 0.068 | [8] 0.103 | barasertib 0.042 | [13] 0.006 | volasertib -0.067 | [9] 0.249 | [10] 0.044 | [11] -0.065 | saracatinib -0.014 | sotrastaurin 0.04

ZNF407 (UniProt Q9C0G0)
inactive: ibrutinib 0.052 | [1] -0.072 | ralimetinib 0.089 | [2] 0.055 | [3] 0.036 | [12] -0.206 | [6] -0.213 | [7] -0.064 | vemurafenib -0.03 | [8] -0.01 | barasertib 0.26 | [13] 0.152 | volasertib 0.027 | [9] 0.557 | [10] -0.121 | [11] 0.111 | saracatinib -0.225

ZNF593 (UniProt O00488)
inactive: ibrutinib 0.018 | [1] 0.17 | ralimetinib 0.096 | [2] 0.013 | [3] -0.081 | [12] -0.017 | [5] -0.028 | [6] -0.034 | [7] -0.051 | vemurafenib 0.001 | [8] 0.037 | barasertib -0.026 | [13] -0.174 | volasertib -0.034 | [9] 0.078 | [10] -0.012 | [11] 0.016 | saracatinib -0.012 | sotrastaurin -0.105

ZNF346 (UniProt Q9UL40)
inactive: ibrutinib -0.041 | [1] 0.008 | ralimetinib -0.019 | [2] -0.075 | [3] -0.012 | [4] -0.08 | [12] 0.111 | [5] -0.019 | [6] -0.004 | [7] 0.018 | [8] 0.007 | barasertib 0.013 | [13] 0.029 | volasertib -0.047 | [9] -0.018 | [10] 0.017 | [11] -0.051 | saracatinib 0.001 | sotrastaurin 0.011

ZNF845 (UniProt Q96IR2)
inactive: ibrutinib 0.087 | [1] -0.039 | ralimetinib 0.093 | [2] 0 | [3] -0.061 | [4] -0.047 | [12] 0.072 | [5] 0.005 | [6] -0.012 | [7] -0.109 | vemurafenib 0.085 | [8] -0.024 | barasertib 0.088 | volasertib -0.044 | [9] 0.135 | [10] -0.012 | [11] 0.078 | saracatinib -0.019 | sotrastaurin -0.012

Two entries drawn at random from the list so far, as already listed:
ZNF845 (UniProt Q96IR2)
inactive: ibrutinib 0.087 | [1] -0.039 | ralimetinib 0.093 | [2] 0 | [3] -0.061 | [4] -0.047 | [12] 0.072 | [5] 0.005 | [6] -0.012 | [7] -0.109 | vemurafenib 0.085 | [8] -0.024 | barasertib 0.088 | volasertib -0.044 | [9] 0.135 | [10] -0.012 | [11] 0.078 | saracatinib -0.019 | sotrastaurin -0.012

ZNF593 (UniProt O00488)
inactive: ibrutinib 0.018 | [1] 0.17 | ralimetinib 0.096 | [2] 0.013 | [3] -0.081 | [12] -0.017 | [5] -0.028 | [6] -0.034 | [7] -0.051 | vemurafenib 0.001 | [8] 0.037 | barasertib -0.026 | [13] -0.174 | volasertib -0.034 | [9] 0.078 | [10] -0.012 | [11] 0.016 | saracatinib -0.012 | sotrastaurin -0.105

The results go on:

ZNF316 (UniProt A6NFI3)
inactive: ibrutinib -0.028 | [1] -0.023 | ralimetinib 0.064 | [2] 0.078 | [3] 0.037 | [4] 0.057 | [12] -0.165 | [5] 0.035 | [6] -0.044 | [7] 0.058 | vemurafenib -0.098 | [8] -0.093 | barasertib -0.03 | [13] -0.068 | volasertib 0.099 | [9] -0.058 | [10] -0.301 | [11] 0.08 | saracatinib 0.035 | sotrastaurin -0.039

ZNF428 (UniProt M0QXZ5)
inactive: ibrutinib 0.055 | [1] 0.009 | ralimetinib -0.048 | [2] -0.103 | [3] -0.062 | [4] -0.076 | [12] -0.068 | [5] 0.057 | [6] -0.064 | [7] -0.018 | vemurafenib 0.018 | [8] 0.022 | barasertib 0.072 | [13] 0.009 | volasertib 0.039 | [9] 0.059 | [10] 0.071 | [11] 0.001 | saracatinib 0.018 | sotrastaurin -0.089

ZNF598 isoform 3 (UniProt Q86UK7)
inactive: ibrutinib 0.032 | [1] -0.007 | ralimetinib -0.001 | [2] -0.017 | [3] 0.013 | [4] 0.019 | [12] 0.005 | [5] -0.001 | [6] -0.004 | [7] 0 | vemurafenib 0.022 | [8] 0.036 | barasertib 0.019 | [13] 0.067 | volasertib -0.032 | [9] 0.017 | [10] -0.011 | [11] 0.001 | saracatinib -0.008 | sotrastaurin 0.014

ZNF74 isoform 5 (UniProt Q16587)
inactive: ibrutinib -0.268 | [1] 0.045 | ralimetinib 0.109 | [2] 0.255 | [3] -0.091 | [4] 0.12 | [12] -0.237 | [6] 0.253 | [7] 0.149 | [8] 0.157 | barasertib 0.124 | [13] 0.229 | volasertib 0.143 | [9] -0.139 | [10] 0.029 | [11] 0.065 | saracatinib -0.2

ZHX3 (UniProt Q9H4I2)
inactive: ibrutinib 0.125 | [1] 0.059 | ralimetinib 0.015 | [2] -0.016 | [4] -0.134 | [12] -0.051 | [6] 0.126 | [7] -0.105 | vemurafenib 0.019 | [8] 0.146 | barasertib 0.16 | volasertib -0.097 | [9] 0.082 | [10] 0.025 | [11] -0.094 | saracatinib 0.044

ZMPSTE24 (UniProt O75844)
inactive: ibrutinib -0.023 | [1] -0.002 | ralimetinib 0.009 | [2] -0.034 | [3] 0 | [4] 0.004 | [12] -0.002 | [5] 0.018 | [6] -0.017 | [7] -0.017 | vemurafenib 0.047 | [8] -0.011 | barasertib -0.014 | [13] 0.041 | volasertib 0.066 | [9] -0.013 | [10] -0.22 | [11] 0.171 | saracatinib 0.024 | sotrastaurin 0.047

From the supplement of paper PMC10849652
